No constants are given. Whether binding was seen depends on the method and setting. In cells and extracts the contact can be indirect. Some results given as binding are weak or reduced against the parent protein; the word gives no strength.
Experiments:
[1] = molecular target: T1, Aubergine (Aub), endogenous (Drosophila melanogaster (endogenous in ovaries)) (UniProt O76922); experiment: co-IP; Aub precipitated with anti-Aub antibodies from heterozygous control ovary lysate; blot for Spn-E; no-antibody negative control
T1 sequence: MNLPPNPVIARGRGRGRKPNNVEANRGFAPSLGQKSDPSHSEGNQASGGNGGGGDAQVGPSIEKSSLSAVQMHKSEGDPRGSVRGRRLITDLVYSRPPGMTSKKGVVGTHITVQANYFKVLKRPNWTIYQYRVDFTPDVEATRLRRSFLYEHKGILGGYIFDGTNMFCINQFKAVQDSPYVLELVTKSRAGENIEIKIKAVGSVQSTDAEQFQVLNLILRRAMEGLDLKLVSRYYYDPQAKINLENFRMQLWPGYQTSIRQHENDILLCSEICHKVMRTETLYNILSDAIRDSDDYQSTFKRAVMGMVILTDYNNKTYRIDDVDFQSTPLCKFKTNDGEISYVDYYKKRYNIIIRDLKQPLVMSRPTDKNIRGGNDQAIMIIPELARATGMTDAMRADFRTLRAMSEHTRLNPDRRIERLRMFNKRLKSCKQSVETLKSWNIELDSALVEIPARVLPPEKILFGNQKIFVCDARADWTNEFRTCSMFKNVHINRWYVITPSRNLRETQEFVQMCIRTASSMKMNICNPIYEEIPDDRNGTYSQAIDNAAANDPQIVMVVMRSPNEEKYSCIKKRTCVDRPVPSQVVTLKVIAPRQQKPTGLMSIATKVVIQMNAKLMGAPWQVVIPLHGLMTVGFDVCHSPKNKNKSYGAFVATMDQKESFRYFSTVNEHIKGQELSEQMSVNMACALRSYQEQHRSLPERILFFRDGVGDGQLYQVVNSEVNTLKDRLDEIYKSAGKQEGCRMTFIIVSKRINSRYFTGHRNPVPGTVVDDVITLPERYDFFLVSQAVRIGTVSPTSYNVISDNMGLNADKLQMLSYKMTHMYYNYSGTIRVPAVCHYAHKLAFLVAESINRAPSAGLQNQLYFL

[2] = molecular target: T1, Aubergine (Aub), endogenous (Drosophila melanogaster (endogenous in ovaries)); experiment: co-IP; Aub precipitated with anti-Aub antibodies from squ^PP32/HE47 mutant ovary lysate; blot for Spn-E; no-antibody negative control

B1: Spindle-E (Spn-E), endogenous (protein, UniProt Q9VF26 1-1434)
chain: MDQEVMDFFDFSKELKRVAAAPQGYISSDPRLMATKFKSSEVPNRELIGTDYVSKIVAKEKCLLNGTLLNEQPQGKRIRTLDDLDTDDEGEETEIRRDDEYYKKFRFNLNRDKNLSIYAKREEILAAINAHPVVIIKGETGCGKTTQVPQYILDEAYKSGKYCNIVVTQPRRIAAISIANRVCQEREWQQNTVCSFQVGLHRPNSLEDTRLLYCTTGVLLNNLINNKTLTHYTHIVLDEVHERDQNMDFLLIVVRRLLATNSRHVKIILMSATIDAKELSDYFTTTNSIPPVITTNHRRKHSIEKFYRDQLGSIIWNEEDVGHQQVPEINKHGYRAAVKIIVIIDNMERKAAIQSRQSYDEALRYGAVLIFLPGIYEIDTMAENLTCMLENDPNIKVSIVRCFSLMTPENQRDVFNPPPPGFRKIILTTNIAESSITVPDVSYVIDFCLAKVKVTDTASSFSSLRLTWASKANCRQRAGRVGRLRSGRVYRMVNKHFYQREMPEFGIPEMLRLPLQNSVLKAKVLNMGSPVEILALALSPPNLSDIHNTILLLKEVGALYLTVDGIYDPLDGDLTYWGTIMSRLPLDTRQSRLIILGYIFNMLEEAIIIAAGLSTPGLFAHEGGRSQLGDSFWMHYIFSDGSGSDLVAIWRVYLTYLNIVENGHDQESAIRWAKRFHVSLRSLKEIHLLVQELRVRCTHLGLIPFPVNPNQMMDDREKAIMLKVIIAGAFYPNYFTRSKESCADTDRNIYQTISGHDPCRTVYFTNFKPAYMGELYTRRIKELFQEVRIPPENMDVTFQEGSQKVFVTFKQDDWIEGSSKYVPVSGRVQSEVYKAVMMRQNRVERPIHIMNPSAFMSYVQQRGIGDVIEGRWIPPTKPLNVELLALPSVFDKTISGSITCIVNCGKFFFQPQSFEECIRNMSEIFNAPQQLRNYVTNASAIAKGMMVLAKRDSYFQRATVIRPENQSNRQPMFYVRFIDYGNCTLLPMQLMRLMPRELTEQYGDLPPRVFECRLAMVQPSSVVSGNNRWSTAANDMLKTVAQCGLIDIEVYSLFNNVAAVLIHMRDGIINDKLVELMLCRRSDEDYMSRKDHDFRLRRQESARNLSTAQRQQINEEYLRSCQLPQDHDLPPPPLEKCKTVVMLKGPNSPLECTMRSITRVGLSKRVNIDHLSVNALLLDADPQDHHDHLIVAHEIAESRNGQTLTARGTTLMPNVQGFGALMVMLFSPTMQLKCNKEGTSYVSVLGGLGCDPDTNEPYFAEHDVLINLDVNILEDDVILINQIRYYIDSVFFNFKEENNPAVSVNERVSIYTQLRSLINRLLCKDRRYIERNMSNADFEWETNPELPLPNEPFGKRAIFPMHSLTELQEEDTGRLVQLRENCSMLHKWRNFEGTLPHMTCKLCNQLLESVPQLRLHLLTILHRDREKQIDYCNQ
- binding [1]: binds weakly
- binding [2]: binds
